According to ChEMBL document CHEMBL1142575, “New colchicinoids from a native Jordanian meadow saffron, colchicum brachyphyllum: isolation of the first naturally occurring dextrorotatory colchicinoid” (J Nat Prod, 2005):

Tests used:
[1] = test system: MCF7; assay: Cytotoxicity against human MCF7 after 3 days by SRB assay; format: functional, cell-based; conditions: MCF7, 72 h
[2] = test system: NCI-H460; assay: Cytotoxicity against human H460 after 3 days by SRB assay; format: functional, cell-based; conditions: NCI-H460, 72 h
[3] = test system: SF-268; assay: cells; format: functional, cell-based; conditions: Homo sapiens, SF-268, 72 h
[4] = test system: Micrococcus luteus; assay: Antimicrobial activity against Micrococcus luteus after 3 days; format: functional; conditions: 72 h
[5] = test system: Mycolicibacterium smegmatis; assay: Antimicrobial activity against Mycobacterium smegmatis after 3 days; format: functional; conditions: 72 h
[6] = test system: Saccharomyces cerevisiae; assay: Antimicrobial activity against Saccharomyces cerevisiae after 3 days; format: functional; conditions: 72 h
[7] = test system: Aspergillus niger; assay: Antimicrobial activity against Aspergillus niger after 3 days; format: functional; conditions: 72 h

## COc1c(O)cc2c(c1OC)-c1ccc(OC)c(=O)cc1[C@@H](NC(C)=O)CC2 [3-DESMETHYLCOLCHICIN]
[1]
  EC50: 180 nM
[2]
  EC50: 510 nM
[3]
  EC50: 280 nM
[4]
  MIC: > 500 µg/mL
[5]
  MIC: > 500 µg/mL
[6]
  MIC: > 500 µg/mL
[7]
  MIC: > 500 µg/mL
